PubChem BioAssay AID1224830 | NIAID – 2016
This is one part, drawn at random, of about 18,000 deposited reagents. In the full data, about 2,900 (16%) are marked active. 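Calls are made per well; low scores hint the gene aids the LPS response, high scores that it dampens it.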 Repeated entries: four replicate wells of each siRNA pool.

Test: 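Host factors that control LPS-induced TNF expression in human macrophages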 (primary screen)
Cell system: human THP-1 monocytic leukaemia cells, TNF dual-luciferase reporter clone, PMA-differentiated to macrophage-like cells
Knock-down reagent: siRNA pool against human genes, 50 nM
Time to read-out: LPS for 4 h, given about 3 days after siRNA transfection
Treatment: bacterial LPS (TLR4 ligand), 10 ng/ml
Measurement: 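TNF firefly reporter luminescence divided by renilla, normalised to the plate median, then turned into a robust z-score for each replicate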
Scale: TNF reporter robust z-score: higher = stronger TNF reporter response to LPS
Active means: 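Each well counts as active if its z-score is over 2.8 or under -1.5; controls are left without a call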

gene,TNF reporter robust z-score,Call
SPINDOC,-1.09,inactive
SPINDOC,-0.99,inactive
SPINDOC,-0.71,inactive
SPINDOC,-1.04,inactive
GABRG2,1.93,inactive
GABRG2,1.88,inactive
GABRG2,-0.23,inactive
GABRG2,-0.92,inactive
EIF4H,-1.17,inactive
EIF4H,-1.04,inactive
EIF4H,-0.56,inactive
EIF4H,0.28,inactive
CLLU1,-0.88,inactive
CLLU1,-0.72,inactive
CLLU1,-0.58,inactive
CLLU1,0.6,inactive
SLC25A39,0.26,inactive
SLC25A39,2.23,inactive
SLC25A39,0.35,inactive
SLC25A39,1.04,inactive
SLC11A1,-1.31,inactive
SLC11A1,-1.33,inactive
SLC11A1,-2.15,active
SLC11A1,-1.1,inactive
BLOC1S6,0.15,inactive
BLOC1S6,-0.05,inactive
BLOC1S6,-0.18,inactive
BLOC1S6,-0.19,inactive
LRRC27,-0.83,inactive
LRRC27,-0.34,inactive
LRRC27,-0.37,inactive
LRRC27,-0.69,inactive
ZMAT4,2.5,inactive
ZMAT4,3.43,active
ZMAT4,-1.38,inactive
ZMAT4,1.58,inactive
DPM1,-0.22,inactive
DPM1,1.12,inactive
DPM1,-0.16,inactive
DPM1,2,inactive
AIF1,-0.71,inactive
AIF1,-0.31,inactive
AIF1,-0.47,inactive
AIF1,0.2,inactive
UPRT,-1.49,inactive
UPRT,-1.17,inactive
UPRT,-1.02,inactive
UPRT,-1.4,inactive

Reformatted: entries from further up.
LRRC27
- TNF reporter robust z-score: -0.37
- Call: inactive

LRRC27
- TNF reporter robust z-score: -0.69
- Call: inactive

ZMAT4
- TNF reporter robust z-score: 2.5
- Call: inactive

Further results follow.
gene,TNF reporter robust z-score,Call
SI,-1.55,active
SI,-0.59,inactive
SI,-0.55,inactive
SI,-0.21,inactive
OR4F6,4.49,active
OR4F6,3.31,active
OR4F6,0.75,inactive
OR4F6,1.25,inactive
ARHGAP28,1.08,inactive
ARHGAP28,-0.43,inactive
ARHGAP28,2.05,inactive
ARHGAP28,3.17,active
NCOA4,-0.14,inactive
NCOA4,0.35,inactive
NCOA4,0.12,inactive
NCOA4,0.27,inactive
TMEM120B,0.58,inactive
TMEM120B,-0.66,inactive
TMEM120B,0.75,inactive
TMEM120B,0.59,inactive
IL37,0.97,inactive
IL37,0.05,inactive
IL37,1.23,inactive
IL37,-0.24,inactive
PCID2,1.74,inactive
PCID2,-0.01,inactive
PCID2,0,inactive
PCID2,0.08,inactive
